Results from patent US20120082676A1 (RESEARCH FOUNDATION OF STATE UNIVERSITY OF NEW YORK, published 2012).
No constants are given. Whether binding was seen depends on the method and setting. Some entries that bind do so weakly or less than the wild type. Each block holds one binder with its values, some of them ahead of it.

By UniProt entry, the sequences of proteins in these tests, tags left out. Residues count along the entry.
UniProt Q07021, residues 74-282: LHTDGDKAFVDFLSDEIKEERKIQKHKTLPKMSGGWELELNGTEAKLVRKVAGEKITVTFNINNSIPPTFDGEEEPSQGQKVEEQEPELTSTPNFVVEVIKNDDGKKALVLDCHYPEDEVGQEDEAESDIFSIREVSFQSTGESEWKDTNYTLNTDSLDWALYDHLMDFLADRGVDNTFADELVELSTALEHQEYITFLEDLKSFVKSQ

Legend:
[1] = target: gC1q-R (receptor for the globular heads of C1q), highly purified recombinant, full-length (human) (UniProt Q07021); assay: binding of gC1q-R to peptides, FIG. 5 panel B
[2] = target: gC1q-R (receptor for the globular heads of C1q), highly purified recombinant, full-length (human) (UniProt Q07021); assay: competitive ELISA: HKH20 in solution against coated HKH20 for biotinylated gC1q-R
[3] = target: gC1q-R (receptor for the globular heads of C1q), highly purified recombinant, full-length (human) (UniProt Q07021); assay: competitive ELISA, FIG. 5 panel A: HKH20 at 10 or 50 µg/ml in solution, biotinylated gC1q-R, coated HKH20
[4] = target: gC1q-R (receptor for the globular heads of C1q), highly purified recombinant, full-length (human) (UniProt Q07021); assay: binding of gC1q-R to 10-residue overlapping peptides from HKH20

binding [1]: binds
binding [2]: binds
binding [3]: binds
B1: HKH20 (HK peptide, residues 479-498) (peptide)
peptide: HKHGHGHGKHKNKGKKNGKH

binding [1]: binds
binding [4]: binds
B2: HKH-10-1 (HK residues 479-488) (peptide)
peptide: HKHGHGHGKH
